Results are given in words; binding and its absence hold for the method and conditions named. For some of these results: Binding seen in cells or lysates may run through a third protein. Some entries that bind do so weakly or less than the wild type. Values belong to the binder of their own block, whether it stands above or below them.
What was measured:
SAD (human) = target: T1, SAD (human) (UniProt Q9UKT4); experiment: yeast two-hybrid; B42-SAF-1α fragments with LexA-SAD (FIG. 6A)
T1 sequence: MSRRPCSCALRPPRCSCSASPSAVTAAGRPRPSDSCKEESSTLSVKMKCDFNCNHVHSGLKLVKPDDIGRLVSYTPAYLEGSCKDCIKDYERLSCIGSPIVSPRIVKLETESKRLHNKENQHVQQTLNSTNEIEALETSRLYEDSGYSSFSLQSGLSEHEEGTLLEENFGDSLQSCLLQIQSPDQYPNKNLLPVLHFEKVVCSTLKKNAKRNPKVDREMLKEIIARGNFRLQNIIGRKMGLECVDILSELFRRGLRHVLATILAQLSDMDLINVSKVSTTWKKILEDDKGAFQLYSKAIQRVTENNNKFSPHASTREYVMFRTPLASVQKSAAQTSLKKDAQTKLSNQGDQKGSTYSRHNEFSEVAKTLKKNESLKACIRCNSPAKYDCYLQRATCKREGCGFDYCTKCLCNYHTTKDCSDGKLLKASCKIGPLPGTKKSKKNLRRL

Chains of the proteins cited; added tags and fusions are not shown. Lines headed by an entry give the natural chain unless they say otherwise; changes in a name come on top. Residues count along the entry.
UniProt P25054, residues 2681-2843: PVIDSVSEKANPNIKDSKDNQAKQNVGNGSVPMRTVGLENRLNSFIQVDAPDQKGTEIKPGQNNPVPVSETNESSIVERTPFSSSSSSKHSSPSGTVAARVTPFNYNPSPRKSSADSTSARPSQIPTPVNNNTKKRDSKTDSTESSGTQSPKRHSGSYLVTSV
UniProt P63208: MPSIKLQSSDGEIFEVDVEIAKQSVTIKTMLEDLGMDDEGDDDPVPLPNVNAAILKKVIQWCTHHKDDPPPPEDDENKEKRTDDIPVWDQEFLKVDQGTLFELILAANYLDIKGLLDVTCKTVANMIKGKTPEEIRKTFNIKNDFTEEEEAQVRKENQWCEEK
UniProt Q9Y3I1: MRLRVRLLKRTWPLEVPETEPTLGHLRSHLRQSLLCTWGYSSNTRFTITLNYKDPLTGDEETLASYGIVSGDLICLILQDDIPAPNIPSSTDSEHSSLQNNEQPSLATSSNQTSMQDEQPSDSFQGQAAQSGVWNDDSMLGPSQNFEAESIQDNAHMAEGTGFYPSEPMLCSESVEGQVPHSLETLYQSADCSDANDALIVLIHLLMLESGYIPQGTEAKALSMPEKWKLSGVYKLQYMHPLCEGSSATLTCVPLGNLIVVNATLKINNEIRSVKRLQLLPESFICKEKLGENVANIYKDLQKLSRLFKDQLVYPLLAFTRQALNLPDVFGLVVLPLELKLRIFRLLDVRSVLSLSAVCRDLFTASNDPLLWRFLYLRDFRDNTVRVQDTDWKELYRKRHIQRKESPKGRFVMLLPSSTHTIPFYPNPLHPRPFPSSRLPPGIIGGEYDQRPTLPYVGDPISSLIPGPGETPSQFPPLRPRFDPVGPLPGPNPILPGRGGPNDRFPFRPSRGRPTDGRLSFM

SIP-L (human) [1] = target: SIP-L (human) (UniProt Q9HB71); experiment: yeast two-hybrid; B42-SAF-1α fragments with LexA-SIP-L (FIG. 6A)
SIP-L (human) [2] = target: SIP-L (human) (UniProt Q9HB71); experiment: yeast two-hybrid; LexA-Siah-1 with B42-SIP-L; β-galactosidase filter assay
APC (2681-2843) (human) [3] = target: APC (2681-2843) (human) (UniProt P25054); experiment: yeast two-hybrid; LexA-Siah-1 with B42-APC(2681-2843); β-galactosidase filter assay
SIP-L (human) [4] = target: SIP-L (human) (UniProt Q9HB71); experiment: yeast two-hybrid; LexA-Siah-1 with B42-SIP-L; growth on leucine-deficient media (Leu+)
[5] = substrate: T2, SIP-S (human); experiment: yeast two-hybrid; LexA-Siah-1 with B42-SIP-S; β-galactosidase filter assay
T2 sequence: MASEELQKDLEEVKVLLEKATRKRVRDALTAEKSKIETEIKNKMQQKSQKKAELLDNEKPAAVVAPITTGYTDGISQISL

APC (2681-2843) (human) [6] = target: APC (2681-2843) (human) (UniProt P25054); experiment: yeast two-hybrid; LexA-Siah-1 with B42-APC(2681-2843); growth on leucine-deficient media (Leu+)
[7] = substrate: T2, ; experiment: yeast two-hybrid; LexA-Siah-1 with B42-SIP-S; growth on leucine-deficient media (Leu+)
Siah-1 (human) [8] = target: T3, Siah-1 (human) (UniProt Q8IUQ4); experiment: GST pull-down with 35S-labeled in vitro translated Siah-1 (FIG. 5A); the immobilised Siah-1 fusion is not described
T3 sequence: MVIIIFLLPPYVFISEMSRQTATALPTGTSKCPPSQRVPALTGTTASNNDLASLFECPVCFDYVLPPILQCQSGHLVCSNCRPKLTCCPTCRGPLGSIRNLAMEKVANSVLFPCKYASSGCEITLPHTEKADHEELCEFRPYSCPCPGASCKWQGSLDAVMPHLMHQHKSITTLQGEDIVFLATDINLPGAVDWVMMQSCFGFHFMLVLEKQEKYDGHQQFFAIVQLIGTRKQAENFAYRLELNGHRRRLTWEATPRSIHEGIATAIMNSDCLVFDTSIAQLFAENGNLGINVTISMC

Skp1 (human) = Skp1 (human) (UniProt P63208); experiment: yeast two-hybrid; B42-SAD and fragments with LexA-SKP1 (FIG. 6B)
SAF-1 (human) = target: T4, SAF-1 (human) (UniProt Q9Y3I1); experiment: yeast two-hybrid; B42-SAD and fragments with LexA-SAF-1 (FIG. 6B)
T4 sequence: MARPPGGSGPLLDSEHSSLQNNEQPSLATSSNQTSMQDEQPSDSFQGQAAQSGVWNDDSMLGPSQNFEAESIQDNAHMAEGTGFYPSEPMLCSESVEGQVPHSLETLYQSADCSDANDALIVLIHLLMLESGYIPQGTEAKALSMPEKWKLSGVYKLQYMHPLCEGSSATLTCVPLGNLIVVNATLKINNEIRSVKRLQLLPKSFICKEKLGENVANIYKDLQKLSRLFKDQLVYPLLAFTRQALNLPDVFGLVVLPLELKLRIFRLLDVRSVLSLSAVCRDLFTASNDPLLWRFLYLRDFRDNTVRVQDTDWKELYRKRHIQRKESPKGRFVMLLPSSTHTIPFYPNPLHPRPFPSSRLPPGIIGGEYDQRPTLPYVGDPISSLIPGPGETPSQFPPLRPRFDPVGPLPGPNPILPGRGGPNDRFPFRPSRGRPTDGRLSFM

Siah-1 (human) [9] = target: T3, Siah-1 (human); experiment: yeast two-hybrid
Siah-1 (human) [10] = target: T3, Siah-1 (human); experiment: yeast two-hybrid library screen; LexA-Siah-1 (22-298) bait, human embryonic brain cDNA clones encoding portions of Siah-1

binding (SAD (human)): binds
binding (SIP-L (human) [1]): binds
B1: SAF-1 (protein)
chain: MARPPGGSGPLLDSEHSSLQNNEQPSLATSSNQTSMQDEQPSDSFQGQAAQSGVWNDDSMLGPSQNFEAESIQDNAHMAEGTGFYPSEPMLCSESVEGQVPHSLETLYQSADCSDANDALIVLIHLLMLESGYIPQGTEAKALSMPEKWKLSGVYKLQYMHPLCEGSSATLTCVPLGNLIVVNATLKINNEIRSVKRLQLLPKSFICKEKLGENVANIYKDLQKLSRLFKDQLVYPLLAFTRQALNLPDVFGLVVLPLELKLRIFRLLDVRSVLSLSAVCRDLFTASNDPLLWRFLYLRDFRDNTVRVQDTDWKELYRKRHIQRKESPKGRFVMLLPSSTHTIPFYPNPLHPRPFPSSRLPPGIIGGEYDQRPTLPYVGDPISSLIPGPGETPSQFPPLRPRFDPVGPLPGPNPILPGRGGPNDRFPFRPSRGRPTDGRLSFM

binding (SIP-L (human) [2]): binds
binding (APC (2681-2843) (human) [3]): binds
binding (SIP-L (human) [4]): binds
binding [5]: binds
binding (APC (2681-2843) (human) [6]): binds
binding [7]: binds
binding (Siah-1 (human) [8]): binds
B2: Siah-1 (protein)
chain: MVIIIFLLPPYVFISEMSRQTATALPTGTSKCPPSQRVPALTGTTASNNDLASLFECPVCFDYVLPPILQCQSGHLVCSNCRPKLTCCPTCRGPLGSIRNLAMEKVANSVLFPCKYASSGCEITLPHTEKADHEELCEFRPYSCPCPGASCKWQGSLDAVMPHLMHQHKSITTLQGEDIVFLATDINLPGAVDWVMMQSCFGFHFMLVLEKQEKYDGHQQFFAIVQLIGTRKQAENFAYRLELNGHRRRLTWEATPRSIHEGIATAIMNSDCLVFDTSIAQLFAENGNLGINVTISMC

binding (Skp1 (human)): binds
binding (SAF-1 (human)): binds
B3: SAD (protein)
chain: MSRRPCSCALRPPRCSCSASPSAVTAAGRPRPSDSCKEESSTLSVKMKCDFNCNHVHSGLKLVKPDDIGRLVSYTPAYLEGSCKDCIKDYERLSCIGSPIVSPRIVKLETESKRLHNKENQHVQQTLNSTNEIEALETSRLYEDSGYSSFSLQSGLSEHEEGTLLEENFGDSLQSCLLQIQSPDQYPNKNLLPVLHFEKVVCSTLKKNAKRNPKVDREMLKEIIARGNFRLQNIIGRKMGLECVDILSELFRRGLRHVLATILAQLSDMDLINVSKVSTTWKKILEDDKGAFQLYSKAIQRVTENNNKFSPHASTREYVMFRTPLASVQKSAAQTSLKKDAQTKLSNQGDQKGSTYSRHNEFSEVAKTLKKNESLKACIRCNSPAKYDCYLQRATCKREGCGFDYCTKCLCNYHTTKDCSDGKLLKASCKIGPLPGTKKSKKNLRRL

binding (Siah-1 (human) [9]): binds
B4: SIP-S (protein)
chain: MASEELQKDLEEVKVLLEKATRKRVRDALTAEKSKIETEIKNKMQQKSQKKAELLDNEKPAAVVAPITTGYTDGISQISL

binding (Siah-1 (human) [10]): binds
B5: Siah-1 (22-298) (protein)
chain: ATALPTGTSKCPPSQRVPALTGTTASNNDLASLFECPVCFDYVLPPILQCQSGHLVCSNCRPKLTCCPTCRGPLGSIRNLAMEKVANSVLFPCKYASSGCEITLPHTEKADHEELCEFRPYSCPCPGASCKWQGSLDAVMPHLMHQHKSITTLQGEDIVFLATDINLPGAVDWVMMQSCFGFHFMLVLEKQEKYDGHQQFFAIVQLIGTRKQAENFAYRLELNGHRRRLTWEATPRSIHEGIATAIMNSDCLVFDTSIAQLFAENGNLGINVTISMC

From patent publication US20070042463A1
